Data from publication PMC5364489.

Target: Mt56 T7 RNA polymerase (A102D) (UniProt P00573)
Assay: EMSA
Details: 2.5 uM dsDNA, weaker than wild type, half-saturation compared only in figure, not a true Kd; 50 mM Tris acetate, 10 mM magnesium acetate, 50 mM sodium acetate (pH not stated), 25 °C, 30 min; 1.5% TAE agarose gel; recombinant protein; label: 5' ATTO488 on strand 1

GCCAGTAATACGACTCACTATAGGG (double strand) [T7 promoter dsDNA]
binding result: binds more weakly

Construct, isoform or probe ends are uncertain for at least one entry. The comparison behind a weaker result is the experiment's own reference, which may not be listed here.
